# Laboratory results reported in PubChem BioAssay AID2685 (National Center for Advancing Translational Sciences (NCATS), 2010).
# The list shows a part of the results. Shown are side measurements of this screen, not its main read-out; they come without a call. The list favours compounds with an active or inconclusive main result. The note in brackets gives the kind of curve behind each potency; many fits are weak.
# Experiment: qHTS Assay for Lipid Storage Modulators in Drosophila S3 Cells;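 on cell number change: cells counted by Cell Tracker Red CMTPX staining in the red channel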
# Conditions: BODIPY lipid droplet fluorescence, 18-24 h; for cell number change: measured here: cell count max response, cells fed with added oleic acid
# Method in brief: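 Laser-scanning cytometry quantifies lipid droplet accumulation (500–530 nm total intensity; droplet/cell object ratio) in oleic acid-fed (400 uM added) Drosophila S3 cells treated with a concentration series. 20 uM Triacsin C defined 100% inhibition.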
# [1] = measured here: cell number channel AC50, cells fed with added oleic acid
# [2] = measured here: lipid fluorescence (Fed channel) AC50, cells fed with added oleic acid
Compound,cell number change [%],AC50 [1],AC50 [2]
CCOC(=O)C1CCN(C/C=C/c2ccccc2[N+](=O)[O-])CC1,10.8,,
COc1ccc(OCc2cc(C(=O)N(C)Cc3cc(C4CC4)n[nH]3)no2)c(Cl)c1,-19.1,"6.51 µM [falling, single point]",
O=C(NC1CC(=O)N(c2ccc3c(c2)OCCO3)C1)N1CCC(O)CC1 (stereo unspecified),-25,"3.66 µM [falling, single point]",
COc1ccc(NC2CCCN(C(=O)CSc3ccncc3)C2)cc1 (stereo unspecified),,,"29.1 µM [falling, single point]"
CC(C)(CNS(=O)(=O)c1ccc2c(c1)OCCO2)N1CCOCC1,,"6.51 µM [rising, single point]","6.51 µM [rising, single point]"
COc1ccc(C)cc1Nc1n[n+](-c2ccccc2)c(-c2ccc(OC)c(OC)c2OC)s1,-28.5,,
CCOC(=O)c1sc(N/N=C/c2cc(Br)c(O)c(OC)c2)nc1C,-1.4,,"5.17 µM [falling, full curve]"
COc1ccc(CCNC(=O)c2ccc3nc4cc(Cl)ccc4c(=O)n3c2)cc1OC,239,"29.1 µM [rising, single point]","20.6 µM [falling, single point]"
COc1ccc(Cl)cc1NC(=O)c1ccc2c(SCC(=O)O)c3c(nc2c1)CCCC3,-15.6,,"0.259 µM [rising, partial curve, poor fit]"
COc1ccc(NC(=O)c2ccccc2NC(=O)c2ccccc2)cc1,1.92,,
CC(C)CC(=O)Nc1nnc(SCC(=O)Nc2ccc3c(c2)OCO3)s1,7.78,,"0.058 µM [rising, full curve, poor fit]"
O=C(Nc1ccccc1Cl)Oc1ccc(Cl)cc1Cl,-51.8,,"18.4 µM [falling, single point]"
COc1ccc(N/C=C(\C#N)c2nc3ccccc3n2C)c(OC)c1,-8.67,,"0.00517 µM [rising, full curve, poor fit]"
CCC(C)NCC(=O)Nc1ccc(-c2nc3cc(NC(=O)CNC(C)CC)ccc3o2)cc1 (stereo unspecified),-9.34,,"20.6 µM [falling, single point]"
CC(C)C[C@@H](CN=[N+]=[N-])N1CCN(C)CCC1=O,-4.21,,
COC(=O)COc1ccc(/C=N/NS(=O)(=O)c2ccccc2)cc1,20.8,"0.00411 µM [rising, full curve, poor fit]","0.461 µM [rising, full curve, poor fit]"
Cc1ccc(C(=O)Nc2cccc(NC(=O)c3ccc(C)c([N+](=O)[O-])c3)n2)cc1[N+](=O)[O-],,,"6.51 µM [falling, single point]"
COC(=O)c1scc(C)c1N/N=C(\C)c1cc(F)c(Cl)cc1F,-80.8,"29.1 µM [falling, single point]","29.1 µM [falling, single point]"
CCc1ccccc1NC(=O)c1ccccc1N1C(=O)C2C3C=CC(C3)C2C1=O (stereo unspecified),-2.89,,
CN(C(=O)COC(=O)c1cccc(Cl)c1)C1CCS(=O)(=O)C1 (stereo unspecified),43.3,"25.9 µM [rising, single point]","25.9 µM [rising, partial curve, poor fit]"

# A second format for two compounds above.
Compound | cell number change [%] | AC50 [1] | AC50 [2]
COC(=O)c1scc(C)c1N/N=C(\C)c1cc(F)c(Cl)cc1F | -80.8 | 29.1 µM [falling, single point] | 29.1 µM [falling, single point]
CCc1ccccc1NC(=O)c1ccccc1N1C(=O)C2C3C=CC(C3)C2C1=O (stereo unspecified) | -2.89 |  | 

# Following part:

Compound,cell number change [%],AC50 [1],AC50 [2]
COc1cc(C2NC(=O)c3ccccc3O2)cc(OC)c1OC (stereo unspecified),36.9,"0.0231 µM [rising, full curve, poor fit]","29.1 µM [rising, partial curve, poor fit]"
Cn1ncc(Cl)c1C(=O)N/N=C/c1ccccn1,-12.1,,
O=C(c1ccco1)N1CCN(C(=O)c2cnn(-c3cccc(F)c3)c2C2CCNCC2)CC1,-0.382,,
Cc1nn(CCCC(=O)O)c(C)c1[N+](=O)[O-],21.9,,
O=C(/C=C/c1ccc(O)cc1)c1ccccc1,-22.8,,"18.4 µM [falling, partial curve, poor fit]"
CCc1ccc2[nH]c(=O)c(C(c3nnnn3Cc3ccccc3)N3CCOCC3)cc2c1 (stereo unspecified),0.537,,
CC(C)OCCCn1c(=O)c2ccccc2n2c(CCC(=O)NC3CCN(Cc4ccccc4)CC3)nnc12,-19.6,,
Cn1c(=O)cc(SCC(=O)N2CCN(c3ccccc3)CC2)c2ccccc21,,"0.164 µM [rising, full curve, poor fit]","0.291 µM [rising, partial curve, poor fit]"
O=C(CCC1CCN(C(=O)c2cccc(Cl)c2F)CC1)Nc1ccccc1,13.8,,
CC1CCCCN1C(=O)COc1ccccc1F (stereo unspecified),19,,"0.092 µM [falling, full curve, poor fit]"
O=C(Nc1ccc2c(c1)OCO2)N1CCN(c2cccc(C(F)(F)F)c2)CC1,,"0.82 µM [rising, full curve]","1.46 µM [rising, partial curve]"
O=C(NC1CCCCC1)c1cc(-c2ccccc2O)on1,35.4,"13 µM [rising, partial curve]","0.116 µM [falling, single point]"
O=C(NNC(=O)C1CCCC1)c1ccccc1F,14.5,,"9.2 µM [rising, partial curve, poor fit]"
O=C(CSc1nc2ccccc2[nH]1)NCCCn1ccnc1,-5.21,,"0.651 µM [rising, full curve, poor fit]"
COc1ccccc1CNC(=O)C1CCCN1S(=O)(=O)c1cccc2cccnc12 (stereo unspecified),,"0.00461 µM [rising, full curve, poor fit]","3.66 µM [rising, partial curve, poor fit]"
COc1ccc(/C=C2/SC(=O)N(CCCCCC(=O)Nc3ccccc3C(=O)O)C2=S)cc1,-32.5,"1.84 µM [falling, partial curve, poor fit]",
CN(C)S(=O)(=O)c1ccc2oc(SCC(=O)Nc3ccccc3F)nc2c1,-33.7,"3.66 µM [rising, single point]",
COc1cc(Cl)ccc1OCc1cc(C(=O)N2CCCC(OC)C2)no1 (stereo unspecified),11,,"29.1 µM [rising, single point]"
COc1ccc(/C=C(/NC(=O)c2cccc([N+](=O)[O-])c2)C(=O)O)cc1OC,-44.6,,"29.1 µM [falling, partial curve, poor fit]"
